Test results published in PubChem BioAssay AID540256 (National Center for Advancing Translational Sciences (NCATS), 2011).
Among all 300,000 compounds or so, about 3,700 (1.2%) were called active. The inconclusive results got no clear call from the source; some entries with a clear call stand among them for comparison. Calls follow the shape of the full dose curve; tested in HEK293 cells. A potency beside an inconclusive call is a rough fit, not a confirmed value.

Test: qHTS for Inhibitors of binding or entry into cells for Lassa Virus; also: nearly all actives have a fitted effect of over 50% in size
Details: Lassa virus pseudotype entry inhibition, cell reporter; activity change, negative = inhibition: at 37.9 µM (top of the series) unless noted
% is scaled to controls: 0 for no effect and ±100 for the full control effect; potency is read from the fitted curve at half-maximal effect.

SMILES	activity change, negative = inhibition	Potency
CCN(CC(O)COCc1ccc(Cl)cc1)C1CCCCC1 (stereo unspecified)	inactive: -46.7%	–
Cc1ccc(-c2cc(C(=O)N3CCCC3)no2)cc1	–	inconclusive: 10.3 µM [inhibitor, partial curve, poor fit]
CCN1CCC(N(Cc2ccc(F)cc2)C(=O)Nc2cccc(C(F)(F)F)c2)CC1	–	inconclusive: 0.562 µM [inhibitor, full curve, poor fit]
Cc1cc(Cl)c(S(=O)(=O)N2CCSCC2)cc1OCC(=O)NC1CCCCC1	–	inconclusive: 6.51 µM [inhibitor, partial curve, poor fit]
Cc1ccc(Cl)cc1NC(=O)CCCN1C(=O)CCn2nc(-c3cn(C)c4ccccc34)cc21	–	inconclusive: 14.1 µM [inhibitor, single point]
Cc1cc(C(=O)Nc2cccnc2)cs1	inactive: 39.7% [at 14.3 µM]	–
Cc1ccc(C)c(N2CCN(C(=O)c3cc4sccc4n3C)CC2)c1	–	inconclusive: 18.3 µM [inhibitor, single point]
COc1cc(CNc2ccc(S(N)(=O)=O)cc2)ccc1OCC(=O)NC1CCCCC1	inactive: -3.42%	–
O=C(CC(=O)c1ccccc1)Nc1ccc2c(c1)OCCO2	–	active: 8.91 µM
Cc1sc2ncnc(N3CCN(Cc4ccccc4)CC3)c2c1-c1ccc(F)cc1	inactive: 3.21%	–
O=[N+]([O-])c1ccc(-c2ccc(/C=N/O)o2)cc1	–	inconclusive: 1.26 µM [inhibitor, single point]
Cc1ccc(S(=O)(=O)Nc2cc(C(C(=O)OC(C)C)C(=O)C(F)(F)F)c(O)c3ccccc23)c(C)c1 (stereo unspecified)	–	inconclusive: 32.6 µM [inhibitor, single point]
CC(C)(C)OC(=O)N1CCC[C@H]1c1nnc(SCc2ccc(Cl)cc2)o1	–	inconclusive: 8.91 µM [inhibitor, partial curve, poor fit]
O=C(Nc1ccc(S(=O)(=O)N2CCCCC2)cc1)c1ccc(CN2CCOCC2)cc1	–	inconclusive: 6.51 µM [inhibitor, partial curve, poor fit]
CCOC(=O)CSc1nc(=O)n2ccc(C)cc2n1	–	inconclusive: 29.1 µM [activator, partial curve, poor fit]
CC(C)(C)c1ccc(-n2ncc3c2CCCC3NC(=O)CN2CCOC2=O)cc1 (stereo unspecified)	–	inconclusive: 17.8 µM [inhibitor, partial curve, poor fit]
O=C(OCc1cc(-c2ccccc2)no1)c1ccc2ccccc2n1	inactive: 8.67%	–
Cc1cccc(Nc2nc(N)c([N+](=O)[O-])c(NCc3ccccc3)n2)c1	–	inconclusive: 11.2 µM [inhibitor, single point]
COc1cc(C(=O)Nc2nnc(Cc3ccccc3)s2)cc(OC)c1OC	–	inconclusive: 12.6 µM [inhibitor, partial curve, poor fit]
COc1ccc(Cn2c(C)ccc2C)cc1	inactive: -12%	–
COCCOC(=O)c1sc(=S)n(CCOC)c1N	–	inconclusive: 32.6 µM [activator, partial curve, poor fit]
C=CCn1c(C)cc(C(=O)CSc2nc3ccccc3[nH]2)c1C	–	active: 4.61 µM
COC(=O)c1cccnc1NC(=S)NC1CCCCC1	inactive: 19%	–
Cc1noc(NS(=O)(=O)c2ccc(NS(=O)(=O)c3ccc(Cl)cc3)cc2)c1C	–	inconclusive: 3.16 µM [inhibitor, partial curve, poor fit]

SMILES	activity change, negative = inhibition	Potency
COc1ccc(NS(=O)(=O)c2ccc(N3CCOCC3)c(NC(=O)c3ccccc3Cl)c2)cc1	–	active: 1.64 µM
COc1ccc(C(=O)NC(=S)NCCO)cc1Br	–	inconclusive: 18.3 µM [activator, single point]
COc1cccc(/C=N/NC(=O)CSc2ccccc2C)c1OC	–	inconclusive: 35.5 µM [inhibitor, single point]
Cc1cc(NC(=O)N2CCC(CN3CCOCC3)CC2)ccc1Br	–	inconclusive: 35.5 µM [activator, single point]
CCN(CC)S(=O)(=O)c1cccc(NC(=O)C2SC(=Nc3ccc(C)cc3C)C(C(=O)NC(C)COC)=C2N)c1 (stereo unspecified)	–	inconclusive: 29.1 µM [inhibitor, single point]
COc1cc2cnncc2cc1OC	inactive: -7.04%	–
O=C(CCC(=O)c1cccs1)Nc1ccc(F)c(F)c1F	–	inconclusive: 10 µM [activator, partial curve]
O=C(Nc1ccc(Br)cc1)c1cccc(OC(=S)N2CCOCC2)c1	–	inconclusive: 35.5 µM [inhibitor, single point]
Cc1[nH]n(C(N)=S)c(=O)c1N=Nc1ccc(S(=O)(=O)N2CCCCCC2)cc1	inactive: 16.1%	–
CCC(=O)Nc1ccccc1-c1nc2ccccc2n(C(C)C(=O)Nc2ccc(OC)cc2)c1=O (stereo unspecified)	inactive: -24.8% [at 46.1 µM]	–
CCCCCCCCCCSc1n[nH]c(NC(C)=O)n1	–	inconclusive: 3.66 µM [activator, single point]
N=c1c(C(=O)NCc2ccc(F)cc2)cc2c(=O)n3ccccc3nc2n1Cc1ccco1	inactive: 1.05%	–
CCc1nc2ccccc2c(=O)n1NC(=O)c1c(O)c2ccccc2n(CC)c1=O	–	inconclusive: 20 µM [inhibitor, single point]
COc1ccc(-c2cc3c(N)ncnc3o2)cc1	–	inconclusive: 7.05 µM [activator, partial curve, poor fit]
O=C(NNC(=S)Nc1ccccc1C(F)(F)F)C1CC1	inactive: 13.5% [at 46.1 µM]	–
COc1ccc(/C=C(/CC(=O)NCc2ccc(Cl)cc2)c2nc3ccccc3s2)cc1	–	inconclusive: 6.51 µM [inhibitor, single point]
CC(C)(C)c1cc(CCC(=O)NN)cc(C(C)(C)C)c1O	–	inconclusive: 1.26 µM [inhibitor, single point]
CCCC(c1nnnn1C(C)(C)C)N1CCN(c2ccccc2)CC1 (stereo unspecified)	–	inconclusive: 11.2 µM [inhibitor, partial curve]
CCOC(=O)c1c(-c2ccc(-c3ccccc3)cc2)csc1NC(=O)c1cccc(N2C(=O)CCC2=O)c1	–	inconclusive: 0.501 µM [inhibitor, full curve, poor fit]
Cc1cc(Br)ccc1OCC(=O)NNC(=O)c1cnccn1	–	inconclusive: 29.1 µM [inhibitor, single point]
Cc1ccc2c(COC(=O)c3ccccc3F)cc(=O)oc2c1	–	inconclusive: 5.62 µM [inhibitor, single point]
CCN=C1S/C(=C\c2cn(CC)c3ccccc23)C(=O)N1CC	–	inconclusive: 16.4 µM [inhibitor, single point]
Cn1c(O)c(C(=Nc2ccc(F)cc2)c2ccccc2Cl)c(=O)n(C)c1=O	–	inconclusive: 35.5 µM [inhibitor, single point]
CCNC(=O)NC(=O)C(C)OC(=O)CCCSc1nc2ccccc2s1 (stereo unspecified)	–	inconclusive: 29.1 µM [inhibitor, single point]

Copied from the results shown for reference:
SMILES	activity change, negative = inhibition	Potency
Cc1[nH]n(C(N)=S)c(=O)c1N=Nc1ccc(S(=O)(=O)N2CCCCCC2)cc1	inactive: 16.1%	–
CCC(=O)Nc1ccccc1-c1nc2ccccc2n(C(C)C(=O)Nc2ccc(OC)cc2)c1=O (stereo unspecified)	inactive: -24.8% [at 46.1 µM]	–
CCCCCCCCCCSc1n[nH]c(NC(C)=O)n1	–	inconclusive: 3.66 µM [activator, single point]
N=c1c(C(=O)NCc2ccc(F)cc2)cc2c(=O)n3ccccc3nc2n1Cc1ccco1	inactive: 1.05%	–
CCc1nc2ccccc2c(=O)n1NC(=O)c1c(O)c2ccccc2n(CC)c1=O	–	inconclusive: 20 µM [inhibitor, single point]

Later entries

SMILES	activity change, negative = inhibition	Potency
O=C(Nc1ccncc1)c1ccc(Cl)c(S(=O)(=O)N2CCCCC2)c1	–	inconclusive: 0.398 µM [inhibitor, partial curve, poor fit]
Cc1cc(CNC(=O)CCc2nnc(CCCCc3ccccc3)o2)nn1C	inactive: -21.6%	–
CCOC(=O)CSc1nc(-c2ccncc2)ccc1C#N	–	inconclusive: 35.5 µM [inhibitor, single point]
CC(C)(C)c1ccc(/C=N/NC(=O)c2ccccn2)cc1	–	inconclusive: 7.94 µM [inhibitor, partial curve, poor fit]
Cc1ccc(S(=O)(=O)Nc2cccc(-c3ccc(N4CCCCC4)nn3)c2)s1	inactive: -12% [at 46.1 µM]	–
Cc1ccc(C2c3[nH]c4ccccc4c3CCN2C(=O)Nc2ccc(C)c(C)c2)cc1 (stereo unspecified)	–	inconclusive: 35.5 µM [inhibitor, single point]
Cc1cccc(NC(=O)c2ccc3c(=O)n(CC4CCCO4)c(=S)[nH]c3c2)c1 (stereo unspecified)	–	inconclusive: 14.1 µM [inhibitor, single point]
Cc1ccc(NC(=O)c2cccc(S(=O)(=O)N3CCCCC3)c2)cc1	–	inconclusive: 11.2 µM [inhibitor, single point]
Cc1ccc(/C=N/Nc2cccc3cccnc23)c(O)c1	–	inconclusive: 29.1 µM [inhibitor, single point]
Cc1ccnc2nc(C(=O)OCCOc3ccccc3)nn12	inactive: -17.4%	–
COc1ccc2c(c1)CCc1c(C(=O)NC3CCCCC3)noc1-2	inactive: -28.3%	–
CN(C1=C(N2CCCCC2)C(=O)c2ccccc2C1=O)c1ccccc1	–	inconclusive: 29.1 µM [inhibitor, single point]
NC(=O)c1c(NC(=O)c2ccc([N+](=O)[O-])o2)sc2c1CCCC2	–	inconclusive: 14.1 µM [activator, single point]
CCOc1cc(/C=N/NC(=O)c2cc(-c3cccc(OC)c3)nc3ccccc23)ccc1O	–	inconclusive: 2.51 µM [inhibitor, partial curve, poor fit]
CCOc1ccccc1C(=O)NCc1ccc2c(c1)CCN2C(C)=O	inactive: 0.885% [at 46.1 µM]	–
CCC(NC(=O)c1cc(COc2ccc(C)nc2)on1)c1ccc(C)cc1 (stereo unspecified)	–	inconclusive: 7.08 µM [inhibitor, partial curve, poor fit]
CC(C)N1C(=O)S/C(=C/c2ccc3c(c2)n(C)c(=O)n3C)C1=O	inactive: -0.0726%	–
O=C(NNC(=O)C1CC=CCC1C(=O)O)c1cccs1 (stereo unspecified)	inactive: 9.5%	–
CCCCNC(=O)c1[nH]c2ccccc2c1Sc1ccc(C)cc1	inactive: -23.7% [at 46.1 µM]	–
Cc1ccc(CC2C(=O)N(CC(=O)O)C(=O)C2C)cc1 (stereo unspecified)	inactive: -4.21%	–
c1cnc(OCCN2CC2)cn1	inactive: -4.74%	–
CCN(CC)c1ccc(/C=N/Nc2nc(C)cc(C)n2)c(O)c1	–	inconclusive: 6.51 µM [inhibitor, partial curve]
Cc1oc(-c2cccc(Cl)c2)nc1CN1CCC(C(=O)NCCCN2CCN(c3cccc(Cl)c3)CC2)CC1	–	inconclusive: 3.16 µM [activator, full curve, poor fit]
